The list shows a part of the results. Shown are side measurements of this screen, not its main read-out; they come without a call. The list favours compounds with an active or inconclusive main result. Words in brackets tell the shape of the fitted curve; partial curves, single points and poor fits give uncertain potencies.
Assay: qHTS Assay for Modulators of Lamin A Splicing
Settings: HeLa LMNA splicing GFP/RFP minigene ratio, 48 h
Outline: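 S3 HeLa stable clones carrying a lamin A-EGFP splicing minigene plus DsRed2 were seeded at 600 cells/well in Opti-MEM with 2% FBS, pin-dosed and incubated 48 h at 37°C. Acumen cytometry (488 nm) gave the GFP/RFP total-intensity ratio.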

[1] = measured here: GFP splicing reporter channel
[2] = measured here: RFP viability control channel

COc1ccc(Cl)cc1NCc1nnc2n1CCCCC2
AC50 [1]: 0.316 µM [rising, full curve, poor fit]

COc1cccc(-c2nc(CS(=O)(=O)CC(=O)NC3CCCc4ccccc43)c(C)o2)c1 (centres undefined)
AC50 [1]: 4.47 µM [rising, single point] | AC50 [2]: 5.01 µM [rising, single point]

CCn1cc(C(=O)NCc2ccco2)c(=O)c2cc(S(=O)(=O)N3CC(C)CC(C)C3)ccc21 (centres undefined)
AC50 [2]: 17.8 µM [rising, single point]

CC1(C)S[C@@H]2[C@H](NC(=O)C3(N)CCCCC3)C(=O)N2[C@H]1C(=O)O
AC50 [1]: 0.708 µM [falling, partial curve, poor fit] | AC50 [2]: 1.26 µM [falling, partial curve, poor fit]

CCCN(CCC)C(=O)c1ccc2c(=O)n(Cc3ccco3)c(=S)[nH]c2c1
AC50 [1]: 0.00447 µM [rising, full curve, poor fit] | AC50 [2]: 7.08 µM [rising, partial curve, poor fit]

Cc1cc(N/N=C2/CCCc3ccccc32)nc2ccccc12
AC50 [2]: 31.6 µM [falling, partial curve]

O=c1cc(-c2ccccc2)[nH]c2cc(F)ccc12
AC50 [1]: 7.08 µM [rising, partial curve] | AC50 [2]: 5.01 µM [rising, full curve]

Cc1ccc(C)c(NC(=O)CN2C(=O)CCc3cc(S(=O)(=O)N4CCCCC4)ccc32)c1
AC50 [1]: 1 µM [falling, partial curve, poor fit] | AC50 [2]: 0.126 µM [falling, full curve, poor fit]

C=CCn1c(C)cc(C(=O)CSc2nnc(Cc3ccccc3)o2)c1C
AC50 [1]: 35.5 µM [rising, single point] | AC50 [2]: 35.5 µM [rising, single point]

CC(=O)Nc1ccc(NC(=O)c2ccc3c(c2)N(Cc2cccc(Cl)c2)C(=O)c2ccccc2S3=O)cc1 (centres undefined)
AC50 [1]: 3.55 µM [falling, full curve, poor fit] | AC50 [2]: 3.16 µM [falling, full curve, poor fit]

COc1ccc(CCNCc2csc3nc4ccccc4n23)cc1OC
AC50 [1]: 0.1 µM [rising, full curve, poor fit] | AC50 [2]: 0.794 µM [rising, full curve]

Clc1cccc(N2CCN(Cc3nc(-c4ccccc4)no3)CC2)c1
AC50 [2]: 35.5 µM [rising, single point]

N/C(=N\OC(=O)COc1ccc2ccccc2c1)c1ccccn1
AC50 [1]: 0.2 µM [falling, single point]

CCc1ccc2c(CN3CCN(S(=O)(=O)c4ccc5c(c4)OCCO5)CC3)cc(=O)oc2c1
AC50 [1]: 12.6 µM [rising, partial curve] | AC50 [2]: 12.6 µM [rising, partial curve]

COc1ccc(OC)c(S(=O)(=O)N2C(C)CCCC2C)c1 (centres undefined)
AC50 [2]: 15.8 µM [rising, single point]

CCOc1ccccc1NC(=O)/C(C#N)=C/c1c(C)nn(-c2ccccc2)c1Cl
AC50 [1]: 35.5 µM [rising, single point]

C=CCNc1nc2c(c(=O)n(C)c(=O)n2C)n1Cc1ccc(F)cc1
AC50 [2]: 35.5 µM [rising, single point]

N#C/C(=C(/O)CSc1ncn[nH]1)c1nc2ccccc2[nH]1
AC50 [1]: 1 µM [falling, partial curve, poor fit] | AC50 [2]: 0.0794 µM [falling, full curve]

CCN(Cc1cc2ccccc2[nH]c1=O)S(=O)(=O)c1ccccc1
AC50 [2]: 15.8 µM [rising, single point]

CC(C)n1nc(C(=O)Nc2nc3ccccc3[nH]2)c2ccccc2c1=O
AC50 [2]: 7.94 µM [rising, partial curve, poor fit]

N#Cc1ccccc1N=Cc1ccc(Br)cc1
AC50 [2]: 31.6 µM [rising, single point]

COc1ccc(CCNC(=O)CCSc2nc(-c3ccco3)cc(C(F)(F)F)n2)cc1OC
AC50 [2]: 14.1 µM [rising, single point]

Cc1ccc(N2CCN(CCc3nc4cc(NS(C)(=O)=O)ccc4n3C)CC2)cc1
AC50 [2]: 31.6 µM [rising, single point]

COCCn1c(SCC(=O)Nc2cc(Cl)ccc2OC)nc2c([nH]c3ccccc32)c1=O
AC50 [2]: 35.5 µM [falling, single point]

Cn1c(=O)c2nc(SCC(=O)Nc3ccc(OC(F)(F)F)cc3)n(C)c2n(C)c1=O
AC50 [1]: 35.5 µM [rising, partial curve, poor fit]

Cc1nn(-c2ccccc2)c(Cl)c1/C=N/N1CCN(c2ccccn2)CC1
AC50 [1]: 0.0316 µM [rising, full curve, poor fit]

CC1CCCC(C)N1C(=O)c1ccccc1Nc1ccc(SC(F)F)cc1 (centres undefined)
AC50 [1]: 22.4 µM [falling, single point] | AC50 [2]: 11.2 µM [falling, partial curve]

CC(/C=N/NC(=O)CSc1nc(C)cc(C)n1)=C\c1ccccc1
AC50 [2]: 35.5 µM [rising, single point]

CC1=NOC(=O)/C1=C/c1ccc(-c2ccc(Cl)cc2)o1
AC50 [2]: 28.2 µM [rising, single point]

COc1cccc(NC(=O)NC2(C(F)(F)F)Oc3ccccc3O2)c1
AC50 [2]: 17.8 µM [rising, single point]

CCN(CC)CCCNC(=O)N[C@@H](Cc1ccccc1)C(=O)O
AC50 [1]: 35.5 µM [rising, single point] | AC50 [2]: 35.5 µM [rising, single point]

Cc1ccc(C#N)c(SCc2nnc(-c3ccc(Cl)cc3)o2)n1
AC50 [1]: 0.0224 µM [rising, full curve, poor fit] | AC50 [2]: 0.0224 µM [rising, full curve, poor fit]

CC1(C)C2C/C(=N\O)C(C)(/[N+]([O-])=C/c3cccc([N+](=O)[O-])c3)CC21 (centres undefined)
AC50 [1]: 14.1 µM [falling, single point]

O=C(c1ccc(F)cc1F)N(Cc1ccccn1)Cc1ccco1
AC50 [2]: 10 µM [falling, single point]

CC1CN(C(=O)/C=C/c2ccc([N+](=O)[O-])s2)CC(C)O1 (centres undefined)
AC50 [1]: 35.5 µM [falling, single point] | AC50 [2]: 8.91 µM [falling, partial curve, poor fit]

From PubChem BioAssay AID1487 (National Center for Advancing Translational Sciences (NCATS), 2009)
